Consider 2 molecules from article PMC9688820.

Protein sequences, listed by entry. Tags and fused reporters are not part of them.
UniProt P10227: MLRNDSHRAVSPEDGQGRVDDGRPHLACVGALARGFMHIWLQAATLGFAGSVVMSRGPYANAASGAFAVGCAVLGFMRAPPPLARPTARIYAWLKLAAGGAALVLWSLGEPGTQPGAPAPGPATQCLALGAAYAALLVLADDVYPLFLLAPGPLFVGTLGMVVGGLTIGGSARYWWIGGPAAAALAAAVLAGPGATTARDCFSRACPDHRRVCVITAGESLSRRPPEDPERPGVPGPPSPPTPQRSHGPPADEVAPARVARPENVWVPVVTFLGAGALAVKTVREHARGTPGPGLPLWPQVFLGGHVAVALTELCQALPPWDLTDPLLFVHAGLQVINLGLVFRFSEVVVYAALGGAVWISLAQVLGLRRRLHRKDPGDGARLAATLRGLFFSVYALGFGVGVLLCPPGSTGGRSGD
UniProt P36404: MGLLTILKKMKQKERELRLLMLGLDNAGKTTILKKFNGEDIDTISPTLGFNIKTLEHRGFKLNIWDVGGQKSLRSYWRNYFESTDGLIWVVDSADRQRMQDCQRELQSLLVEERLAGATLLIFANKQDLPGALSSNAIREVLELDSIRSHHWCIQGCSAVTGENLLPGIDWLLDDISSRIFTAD

Experiment [1] addresses HSV-1 UL43 protein, FLAG-tagged wild type (UL43-WT-FLAG) (herpes simplex virus 1 (HSV-1)) (UniProt P10227). Kind of experiment: co-IP; mitochondrial proteins of transfected HUVEC cells (UL43-WT, UL43-Y144A, Mock; with or without ARL2-siRNA), 48 h after transfection, NP40 lysis buffer (50 mM Tris-HCl pH 8.0, 120 mM NaCl, 0.5% NP40, 1 mM PMSF); anti-FLAG, anti-ARL2 or IgG at 4 °C overnight, protein G agarose beads; Western blot. Background: Immunoblotting shows a protein as a band on a membrane.

Experiment [2] concerns the target ARF-like 2 (ARL2) GTPase (human (endogenous in HUVEC)) (UniProt P36404). Described as above.

These are yes or no findings as the source states them, for the method shown. In cells and extracts the contact can be indirect. Some results given as binding are weak or reduced against the parent protein; the word gives no strength.

For “ARF-like 2 (ARL2) GTPase (from UniProt P36404 1-184)”, in experiment [1], the binding entry is given as “binds”.

B1: ANT1 (SLC25A4), adenine nucleotide translocator protein (protein, UniProt P12235 1-298)
chain: MGDHAWSFLKDFLAGGVAAAVSKTAVAPIERVKLLLQVQHASKQISAEKQYKGIIDCVVRIPKEQGFLSFWRGNLANVIRYFPTQALNFAFKDKYKQLFLGGVDRHKQFWRYFAGNLASGGAAGATSLCFVYPLDFARTRLAADVGKGAAQREFHGLGDCIIKIFKSDGLRGLYQGFNVSVQGIIIYRAAYFGVYDTAKGMLPDPKNVHIFVSWMIAQSVTAVAGLVSYPFDTVRRRMMMQSGRKGADIMYTGTVDCWRKIAKDEGAKAFFKGAWSNVLRGMGGAFVLVLYDEIKKYV
In the case of B1, in experiment [2], the binding entry is listed as “binds”.
